These results are taken from paper PMC6155280.

These are yes or no findings as the source states them, for the method shown. In cells and extracts the contact can be indirect. Some results given as binding are weak or reduced against the parent protein; the word gives no strength.

The assay concerns the target T1, Phosphoglycerate mutase/protein family member 5 (PGAM5) (human (endogenous in 7402 and HepG2)) (UniProt Q96HS1).
T1 sequence: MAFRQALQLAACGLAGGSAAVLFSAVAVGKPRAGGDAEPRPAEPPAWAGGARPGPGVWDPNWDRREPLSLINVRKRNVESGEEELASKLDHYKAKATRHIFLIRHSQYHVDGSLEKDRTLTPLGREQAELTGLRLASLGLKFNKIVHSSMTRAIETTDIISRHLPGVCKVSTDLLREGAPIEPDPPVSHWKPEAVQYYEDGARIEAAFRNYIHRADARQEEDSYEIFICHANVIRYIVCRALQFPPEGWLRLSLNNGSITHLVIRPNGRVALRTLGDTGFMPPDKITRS
Kind of assay: co-IP; anti-PGAM5 antibody on whole cell lysates of 7402 and HepG2 cells; lysis buffer 20 mM Tris pH 7.5, 150 mM NaCl, 1 mM EDTA, 1 mM EGTA, 1% Triton X-100; protein A/G agarose; blot with anti-Bcl-xL.

On to Bcl-xL (from UniProt Q07817-1 1-233), for which the binding result is listed as “binds”.
